Data on one molecule can be found in article PMC6852550.

These are yes or no findings as the source states them, for the method shown. In cells and extracts the contact can be indirect. Some entries that bind do so weakly or less than the wild type. Where a sequence is shown, tags or fusion partners need not be part of it.

Assay [1] deals with T1, CDKD;1:GFP (CYCLIN-… KINASE D;1 with C-terminal GFP) (Arabidopsis thaliana) (UniProt Q9C9U2).
T1 sequence: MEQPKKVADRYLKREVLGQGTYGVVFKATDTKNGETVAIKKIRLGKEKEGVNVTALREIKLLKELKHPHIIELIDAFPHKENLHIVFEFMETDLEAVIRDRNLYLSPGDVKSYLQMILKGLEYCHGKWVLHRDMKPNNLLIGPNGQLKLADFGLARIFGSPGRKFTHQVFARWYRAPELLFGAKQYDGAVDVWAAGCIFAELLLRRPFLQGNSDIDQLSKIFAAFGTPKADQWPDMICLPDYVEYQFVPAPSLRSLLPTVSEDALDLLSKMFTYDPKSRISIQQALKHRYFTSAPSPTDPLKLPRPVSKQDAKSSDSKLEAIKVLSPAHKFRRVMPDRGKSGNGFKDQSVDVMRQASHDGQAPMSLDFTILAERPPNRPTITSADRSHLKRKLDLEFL
Put plainly: co-IP; GFP-Trap agarose on 20 mg total protein extract of 14- to 15-day-old Arabidopsis seedlings co-expressing the two tagged proteins; 2 h at 4°C; washed with 50 mM Tris-HCl pH 7.5, 300 mM NaCl; western blot with anti-RFP, anti-HA and anti-GFP antibodies. (In general: Immunoblotting shows a protein as a band on a membrane.)

The target in assay [2] is T2, CDKD;3:GFP (CYCLIN-… KINASE D;3 with C-terminal GFP) (Arabidopsis thaliana) (UniProt Q9LMT0).
T2 sequence: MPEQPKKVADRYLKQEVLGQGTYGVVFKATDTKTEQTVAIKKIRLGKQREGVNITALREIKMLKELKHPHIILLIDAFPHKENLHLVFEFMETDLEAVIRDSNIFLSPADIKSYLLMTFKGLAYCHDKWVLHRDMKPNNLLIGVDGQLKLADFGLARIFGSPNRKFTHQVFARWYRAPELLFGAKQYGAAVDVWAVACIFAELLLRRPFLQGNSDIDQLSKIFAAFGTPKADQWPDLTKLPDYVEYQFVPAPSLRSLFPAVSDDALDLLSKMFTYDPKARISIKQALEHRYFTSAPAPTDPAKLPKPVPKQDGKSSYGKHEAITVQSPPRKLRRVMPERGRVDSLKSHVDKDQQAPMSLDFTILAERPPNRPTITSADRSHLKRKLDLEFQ
The assay is described as above.

B1: CDKF;1:PIPL (CDKF;1 with C-terminal PIPL tag) (enzyme, UniProt O80345 1-479)
chain: MDKQPATSWSIHTRPEIIAKYEIFERVGSGAYADVYRARRLSDGLIVALKEIFDYQSAFREIDALTILNGSPNVVVMHEYFWREEENAVLVLEFLRSDLAAVIRDGKRKKKVEGGDGFSVGEIKRWMIQILTGVDACHRNLIVHRDLKPGNMLISDDGVLKLADFGQARILMEHDIVASDENQQAYKLEDKDGETSEPPEVIPDYENSPRQGSDGQEREAMSKDEYFRQVEELKAKQVVRDDTDKDSNVHDGDISCLATCTVSEMDDDLGRNSFSYDADEAVDDTQGLMTSCVGTRWFRPPELLYGSTMYGLEVDLWSLGCVFAELLSLEPLFPGISDIDQISRVTNVLGNLNEEVWPGCVDLPDYKSISFAKVESPLGIEGCLPNHSGDVISLLKKLICYDPASRATTMEMLNDKYLSEEPLPVPVSELYVPPTMSGPDEDSPRKWNDYREMDSDSDFDGFGPMNVKPTSSGFTIEFP
With B1, the binding entry in assay [1] and in assay [2] was “binds” in each case.
